# According to article PMC11157767 (Molecular Cancer, 2024):
# Further values from the same series stand in other lists.
# Test system: TFG-MET allograft tumors
# Test: RNA-sequencing, differential expression and GSEA of TFG-MET allograft tumors
# Format: in vivo, mouse
# Conditions: CAP v Veh
# Method: Error bars display standard error of mean, statistical significance was determined using t-test analysis. (****;p<0.0001, ***;p<0.001, **;p<0.01, *;p<0.05). […] Each dot represents an individual replicate. Error bars display standard error of the mean.
# Each dot represents one gene.
smiles,measurement,setting,value
CNC(=O)c1ccc(-c2cnc3ncc(Cc4ccc5ncccc5c4)n3n2)cc1F [Capmatinib],NES,"GOMF_PEPTIDE_RECEPTOR_ACTIVITY, padj 0.0807945",1.3812
same,ES,GOMF_PHOSPHOLIPASE_ACTIVITY,0.381
same,NES,"GOMF_PHOSPHOLIPASE_ACTIVITY, padj 0.0022957",1.892
same,ES,GOMF_PHOSPHOPROTEIN_PHOSPHATASE_ACTIVITY,-0.3191
same,NES,"GOMF_PHOSPHOPROTEIN_PHOSPHATASE_ACTIVITY, padj 0.096235",-1.393
same,ES,GOMF_PRE_MRNA_BINDING,-0.588
same,NES,"GOMF_PRE_MRNA_BINDING, padj 0.000682986",-2.009
same,ES,GOMF_PROTEIN_METHYLTRANSFERASE_ACTIVITY,-0.4731
same,NES,"GOMF_PROTEIN_METHYLTRANSFERASE_ACTIVITY, padj 0.00174921",-1.856
same,ES,GOMF_PROTEIN_SERINE_KINASE_ACTIVITY,-0.3713
same,ES,GOMF_PROTON_TRANSMEMBRANE_TRANSPORTER_ACTIVITY,0.4534
same,NES,"GOMF_PROTON_TRANSMEMBRANE_TRANSPORTER_ACTIVITY, padj 1.02839e-6",2.257
same,ES,GOMF_REPRESSING_TRANSCRIPTION_FACTOR_BINDING,-0.3874
same,NES,"GOMF_REPRESSING_TRANSCRIPTION_FACTOR_BINDING, padj 0.0966247",-1.493
same,ES,GOMF_RIBONUCLEASE_ACTIVITY,-0.4982
same,NES,"GOMF_RIBONUCLEASE_ACTIVITY, padj 9.12556e-6",-2.0504
same,ES,GOMF_RIBOSOMAL_SMALL_SUBUNIT_BINDING,-0.7352
same,NES,"GOMF_RIBOSOMAL_SMALL_SUBUNIT_BINDING, padj 0.000365194",-2.088
same,ES,GOMF_RIBOSOME_BINDING,-0.5268
same,NES,"GOMF_RIBOSOME_BINDING, padj 0.00104755",-1.943
same,ES,GOMF_RNA_CAP_BINDING,-0.7315
same,NES,"GOMF_RNA_CAP_BINDING, padj 0.00133141",-2.04
same,ES,GOMF_RNA_HELICASE_ACTIVITY,-0.6195
same,NES,"GOMF_RNA_HELICASE_ACTIVITY, padj 1.06457e-8",-2.418
same,ES,GOMF_RNA_METHYLTRANSFERASE_ACTIVITY,-0.6408
same,ES,GOMF_RNA_POLYMERASE_ACTIVITY,-0.6234
same,NES,"GOMF_RNA_POLYMERASE_ACTIVITY, padj 0.000114721",-2.14
same,ES,GOMF_RNA_POLYMERASE_BINDING,-0.5124
same,NES,"GOMF_RNA_POLYMERASE_BINDING, padj 0.000995291",-1.928
same,ES,GOMF_RNA_POLYMERASE_II_CORE_PROMOTER_SEQUENCE_SPECIFIC_DNA_BINDING,-0.566
same,NES,"GOMF_RNA_POLYMERASE_II_CORE_PROMOTER_SEQUENCE_SPECIFIC_DNA_BINDING, padj 0.0966247",-1.579
same,ES,GOMF_RNA_POLYMERASE_II_GENERAL_TRANSCRIPTION_INITIATION_FACTOR_BINDING,-0.5325
same,NES,"GOMF_RNA_POLYMERASE_II_GENERAL_TRANSCRIPTION_INITIATION_FACTOR_BINDING, padj 0.0762355",-1.559
same,ES,GOMF_RRNA_BINDING,-0.501
same,NES,"GOMF_RRNA_BINDING, padj 0.00144515",-1.884
same,ES,GOMF_SEROTONIN_RECEPTOR_ACTIVITY,0.4916
same,NES,"GOMF_SEROTONIN_RECEPTOR_ACTIVITY, padj 0.096438",1.653
same,ES,GOMF_SINGLE_STRANDED_DNA_BINDING,-0.4837
same,NES,"GOMF_SINGLE_STRANDED_DNA_BINDING, padj 4.12475e-5",-2.012
same,ES,GOMF_SINGLE_STRANDED_DNA_HELICASE_ACTIVITY,-0.7063
same,NES,"GOMF_SINGLE_STRANDED_DNA_HELICASE_ACTIVITY, padj 0.000708609",-2.068
same,ES,GOMF_SINGLE_STRANDED_RNA_BINDING,-0.5128
same,NES,"GOMF_SINGLE_STRANDED_RNA_BINDING, padj 9.34144e-5",-2.03
same,ES,GOMF_SNRNA_BINDING,-0.5792
same,NES,"GOMF_SNRNA_BINDING, padj 0.000589704",-2.033
same,ES,GOMF_SOLUTE_CATION_ANTIPORTER_ACTIVITY,0.4133
same,NES,"GOMF_SOLUTE_CATION_ANTIPORTER_ACTIVITY, padj 0.0995416",1.58
same,ES,GOMF_STRUCTURAL_CONSTITUENT_OF_NUCLEAR_PORE,-0.7381
same,NES,"GOMF_STRUCTURAL_CONSTITUENT_OF_NUCLEAR_PORE, padj 3.19533e-5",-2.231
same,ES,GOMF_TELOMERASE_RNA_BINDING,-0.6867
same,NES,"GOMF_TELOMERASE_RNA_BINDING, padj 0.000589704",-2.075
same,ES,GOMF_TELOMERIC_DNA_BINDING,-0.5573
same,NES,"GOMF_TELOMERIC_DNA_BINDING, padj 0.00250145",-1.904
same,ES,GOMF_TRANSCRIPTION_COACTIVATOR_ACTIVITY,-0.365
same,NES,"GOMF_TRANSCRIPTION_COACTIVATOR_ACTIVITY, padj 0.000678027",-1.663
same,ES,GOMF_TRANSCRIPTION_COREGULATOR_ACTIVITY,-0.3862
same,NES,"GOMF_TRANSCRIPTION_COREGULATOR_ACTIVITY, padj 4.79178e-8",-1.829
same,ES,GOMF_TRANSCRIPTION_COREPRESSOR_ACTIVITY,-0.4314
same,NES,"GOMF_TRANSCRIPTION_COREPRESSOR_ACTIVITY, padj 1.94061e-5",-1.895
same,ES,GOMF_TRANSCRIPTION_FACTOR_BINDING,-0.3497
same,ES,GOMF_TRANSFERASE_ACTIVITY_TRANSFERRING_ACYL_GROUPS,-0.2972
same,NES,"GOMF_TRANSFERASE_ACTIVITY_TRANSFERRING_ACYL_GROUPS, padj 0.0995416",-1.333
same,ES,GOMF_TRANSFERASE_ACTIVITY_TRANSFERRING_ONE_CARBON_GROUPS,-0.5419
same,NES,"GOMF_TRANSFERASE_ACTIVITY_TRANSFERRING_ONE_CARBON_GROUPS, padj 6.40741e-14",-2.405
same,ES,GOMF_TRANSFERASE_ACTIVITY_TRANSFERRING_PENTOSYL_GROUPS,-0.4359
same,NES,"GOMF_TRANSFERASE_ACTIVITY_TRANSFERRING_PENTOSYL_GROUPS, padj 0.0821726",-1.542
same,ES,GOMF_TRANSFERASE_ACTIVITY_TRANSFERRING_PHOSPHORUS_CONTAINING_GROUPS,-0.2871
same,NES,"GOMF_TRANSFERASE_ACTIVITY_TRANSFERRING_PHOSPHORUS_CONTAINING_GROUPS, padj 0.00133141",-1.396
same,ES,GOMF_TRANSLATION_FACTOR_ACTIVITY_RNA_BINDING,-0.5479
same,NES,"GOMF_TRANSLATION_FACTOR_ACTIVITY_RNA_BINDING, padj 4.01038e-6",-2.163
same,ES,GOMF_TRANSLATION_INITIATION_FACTOR_ACTIVITY,-0.6039
same,NES,"GOMF_TRANSLATION_INITIATION_FACTOR_ACTIVITY, padj 1.62265e-5",-2.206
same,ES,GOMF_TRANSLATION_INITIATION_FACTOR_BINDING,-0.5884
same,NES,"GOMF_TRANSLATION_INITIATION_FACTOR_BINDING, padj 0.00198095",-1.933
same,ES,GOMF_TRANSLATION_REGULATOR_ACTIVITY_NUCLEIC_ACID_BINDING,-0.5424
same,NES,"GOMF_TRANSLATION_REGULATOR_ACTIVITY_NUCLEIC_ACID_BINDING, padj 7.97652e-8",-2.232
same,ES,GOMF_TRANSLATION_REPRESSOR_ACTIVITY,-0.6184
same,NES,"GOMF_TRANSLATION_REPRESSOR_ACTIVITY, padj 0.00192115",-1.996
same,ES,GOMF_TRNA_METHYLTRANSFERASE_ACTIVITY,-0.6719
same,NES,"GOMF_TRNA_METHYLTRANSFERASE_ACTIVITY, padj 3.26846e-5",-2.231
same,ES,GOMF_ZINC_ION_BINDING,-0.3192
